# From publication PMC11443414 (RSC Advances, 2024)
# Target: T1, urease subunit gamma (UreA) (Staphylococcus aureus, UniProt Q6GEE6)
# T1 sequence (Q6GEE6 1-100): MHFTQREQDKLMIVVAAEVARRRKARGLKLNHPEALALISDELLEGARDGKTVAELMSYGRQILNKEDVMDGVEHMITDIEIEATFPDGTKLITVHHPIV
# Format: binding
smiles,measurement,value
"Nc1ccc(S(N)(=O)=O)cc1 [compound 4, Sulfanilamide]","STD-NMR (individual, group epitope mapping); DSF Tm shift",all the aromatic protons showed interactions with protein in STD difference spectrum
